# Source: PubChem BioAssay AID651595 (National Center for Advancing Translational Sciences (NCATS), 2012)
# Screen size: about 1,100 compounds; fewer than 10 were called active. Not shown: some 6% with an inconclusive outcome. The call rests on the fitted dose curve; in most records, active means well fitted cell-killing curve with a large enough effect; inconclusive means small, poorly fitted or top-dose-only effect; inactive means flat fitted curve, though single readings scatter. This is one part of the list.
# Test: qHTS of Nrf2 Activators: Hit Validation in Cytotox Assay;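 further: compound exposure lasted 24 hours before the ATP readout; 0% is about no effect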
# Conditions: Cell viability counter-screen for Nrf2 activator hits; series mostly up to 46.1 µM; activity change, negative = cytotoxicity: at the top concentration
# Source text: Many diseases have some form of oxidative stress injury and ties to inflammation, causing a host of problems for the patient. The antioxidant response element (ARE) plays an important role in alleviating the harmful effects of oxidative stress. The antioxidant response element (ARE) is a transcriptional regulatory element involved in the activation of genes coding for a number of antioxidant proteins and detoxifying enzymes. These enzymes work in concert to protect tissues from oxidative insults and chemical toxicities in human hepatocytes and immune cells. The protective effects of ARE activation are primarily triggered through Nrf2 (NF-E2-related factor) binding to and activating AREs. It is known that Nrf2 controls the production of over 250 antioxidant and detoxification proteins (Hu et al., 2006), thereby protecting tissues by increasing cellular antioxidant content and suppressing inflammatory signaling pathways. The transcription factor Nrf2 is a central link between oxidative chemicals, such as phenolic antioxidants and electrophilic compounds, and the activation of ARE. Nrf2 levels are constitutively low as a consequence of its interaction with Keap1, which targets its degradation (Zipper and Mulcahy, 2002). Electrophiles react with key cysteine residues in Keap1, releasing Nrf2 and allowing its translocation to the nucleus. Once within the nucleus, Nrf2 complexes with coactivators such as p300, and binds to the AREs to induce gene transcription of cytoprotective enzymes, resulting in the prevention of toxicity. Activation of Nrf2 protects tissues by increasing cellular antioxidant content and suppressing inflammatory signaling pathways. Identifying novel and potent Nrf2 activators by using the AREc32 cell line to detect ARE activation by small molecules will lead to the identification and development of probes to study protective pathways in multiple tissues. These specific probes are essential to study the ARE pathway, and eventually to determine whether this pathway does activate genes that could protect against a host of diseases, including cardiovascular diseases, obesity, diabetes, Alzheimer's, and Parkinson's disease.
# This project's aim is to identify novel and potent Nrf2 activators by using the AREc32 cell line to detect ARE activation by small molecules, which will lead to the identification and development of probes to study the ARE pathway. Cytotoxic compounds are flagged as active, and inactivity is desired in this assay.
# NIH Chemical Genomics Center [NCGC]
# NIH Molecular Libraries Probe Centers Network [MLPCN]
# Assay Submitter (PI): Curtis Klaassen, University of Kansas Medical Center
# Cell viability after compound treatment was measured using a luciferase-coupled ATP quantitation assay (CellTiter-Glo, Promega) in AREc32_fluc cells. The change of intracellular ATP content indicates the number of metabolically competent cells after compound treatment. AREc32_fluc cells were harvested from T225 flask and resuspended in phenol red free OPTI-MEM medium with 5% FBS. Then 5 microL of 200,000 cells/ml resuspended cells was dispensed into each well of white, solid bottom, 1536-well tissue culture-treated plates using a Multidrop Combi dispenser. After overnight culture at 37 degrees C with 5% CO2, a total of 23 nL of compounds at 7 selected concentrations from the cherry pick or positive control (40 uM stock of CDDO-IM and 2 mM of tBHQ) in DMSO was transferred to each well of the assay plate using a pintool (Kalypsys, San Diego, CA), and the plates were further incubated at 37 degrees C with 5% CO2 for 24 hours. After that, 4 microL of CellTilter-GloTM luminescent substrate mix (Promega) was added to each well. The plate was incubated at room temperature for 30 minutes. The plates were measured on a ViewLux plate reader (PerkinElmer) with clear filter.
row,SMILES,"activity change, negative = cytotoxicity"
1,COc1ncccc1-c1cc2nc(NCCNC(C)=O)n(C)c(=O)c2s1,inactive: 4.61%
2,CCOC(=O)COn1c(=O)c(-c2ccco2)[n+]([O-])c2ccccc21,inactive: 5.99%
3,O=C(Cn1ncc(Cl)c(Cl)c1=O)NC1CCS(=O)(=O)C1 (stereo unspecified),inactive: 8.46%
4,COc1ccccc1CNC(=O)COC(=O)c1cc(-c2ccco2)nc2ccccc12,inactive: -1.42%
5,O=C(Nc1ccccc1F)c1cc(-c2ccco2)nc2ccccc12,inactive: 9.87%
6,NC(=O)c1ccsc1NC(=O)COC(=O)[C@@H]1CCCN1C(=O)c1cccs1,inactive: 1.09%
7,COc1ccc(Cl)cc1NC(=O)C1COc2ccccc2O1 (stereo unspecified),inactive: 4.89%
8,COC(=O)c1sccc1NC(=O)c1ccc(OC)c(OC)c1,inactive: 4.1%
9,Oc1ccc(CNc2ccccc2O)cc1,inactive: 3.82%
10,Fc1cccc(Cc2c(-c3ccco3)nc3ccc(Br)cn23)c1,inactive: -15.8%
11,N/C(=N\OC(=O)c1cccc2ccccc12)c1ccc(Br)cc1,inactive: 0.0122%
12,S=c1[nH]nc(-c2cccnc2)n1/N=C/C(Cl)=C\c1ccccc1,inactive: -5.32%
13,O=C(Nc1ncc2c(n1)-c1ccccc1CC2)c1ccccc1,inactive: 5.98%
14,CCN(CC)c1ccc2c(c1)oc(=O)c1c(Cl)cc(=O)oc12,inactive: 21.8%
15,CC(=O)c1ccccc1NC(=O)COC(=O)/C=C/c1ccc(C)o1,inactive: 11.2%
16,Cc1ccc(S(=O)(=O)CCSC(=N)N)cc1,inactive: -2.62%
17,Cc1c(Cl)cccc1N=c1c([N+](=O)[O-])nn(-c2ccccc2)n1O,inactive: 3.05%
18,O=C(Nc1ccccn1)c1ccc(Cl)c([N+](=O)[O-])c1,inactive: 0.552%
19,COc1ccc(NC(=O)CSc2ccc(-c3ccco3)nn2)c(OC)c1,inactive: 1.32%
20,CCN=c1scc(C)n1/N=C/c1ccsc1,inactive: 7.84%
21,COc1ccccc1NC(=O)c1ccc(Cl)c(S(=O)(=O)NCc2ccco2)c1,inactive: 0.292%

# 2 compounds drawn at random from the list so far, as already listed:
row,SMILES,"activity change, negative = cytotoxicity"
2,CCOC(=O)COn1c(=O)c(-c2ccco2)[n+]([O-])c2ccccc21,inactive: 5.99%
1,COc1ncccc1-c1cc2nc(NCCNC(C)=O)n(C)c(=O)c2s1,inactive: 4.61%

# The list goes on.

row,SMILES,"activity change, negative = cytotoxicity"
1,O=C(NNC(=O)C12CC3CC(CC(C3)C1)C2)c1cccc([N+](=O)[O-])c1,inactive: 2.25%
2,Cc1ccc(S(=O)(=O)c2nc(S(C)(=O)=O)sc2N2CCCCC2C)cc1 (stereo unspecified),inactive: -0.821%
3,CSc1c(C#N)c(N)nc2sc(C(=O)c3ccccc3)c(N)c12,inactive: 6.05%
4,[O-][n+]1onc2c3cc(-c4ccccc4)nnc3ccc21,inactive: 0.985%
5,O=C1CC(C(=O)Nc2ccc(Br)cc2)S/C(=N\N=C\c2ccco2)N1 (stereo unspecified),inactive: 1.59%
6,Cc1nn2c(-c3ccco3)nnc2c2ccccc12,inactive: 6.15%
7,Clc1ccsc1-c1csc(-c2cccnc2)n1,inactive: 2.62%
8,Nc1ccc(S(=O)(=O)Nc2nccc(/C=C/c3cccc(Br)c3)n2)cc1,inactive: 10.6%
9,C#CCSc1nnc(-c2sc3ccccc3c2Cl)o1,inactive: 0.211%
10,Nc1ccccc1C=C1Cc2ccccc2C1=O,inactive: -10.1%
11,Cc1ccc(Cl)c2sc(NC(=O)C3CC3)nc12,inactive: 8.93%
12,O=C(Cn1cnc2ccccc21)N/N=C/C(Br)=C/c1ccccc1,inactive: -8.42%
13,O=C(Nc1ccc(Cl)cn1)c1cnn2cccnc12,inactive: 8.42%
14,CN1CCN(c2sc(S(C)(=O)=O)nc2S(=O)(=O)c2ccc(Cl)cc2)CC1,inactive: 7.61%
15,CC(C)(C)OC(=O)NCCC(=O)N/N=C/c1cccc2cccnc12,inactive: -0.796%
16,O=C(N=Nc1c(O)[nH]c2ccc(Br)cc12)c1ccco1,inactive: -0.259%
17,c1ccc(-c2noc(-c3cccc4ccccc34)n2)cc1,inactive: 1.28%
18,COC(=O)c1ccc2nc(-c3ccco3)c(Cc3cccc(Cl)c3)n2c1,inactive: 0.488%
19,O=c1c(-c2ccco2)[n+]([O-])c2ccccc2n1OCc1c(F)cccc1F,inactive: -1.1%
20,CC(C)CCNC(=O)c1cc(-c2ccco2)nc2ccccc12,inactive: 2.06%
21,COC(=O)C1=C(C)N(C)C(=O)/C1=C\c1ccco1,inactive: 6.09%

row,SMILES,"activity change, negative = cytotoxicity"
1,O=C(Nc1ccc(F)cc1)c1nsc(Cl)c1Cl,inactive: 1.43%
2,CCCC(=O)Nc1sc(C)c(C)c1C#N,inactive: -3.29%
3,Fc1cc(F)c2nc(Nc3nc4cc5c(cc4s3)OCO5)sc2c1,inactive: -28.7%
4,CNc1ccc(Br)cc(C(=O)/C=C/c2cccc(Cl)c2Cl)c1=O,inactive: -3.24%
5,N#Cc1nc(-c2ccco2)oc1N1CCCC1,inactive: 10.4%
6,N#CC(C(=O)NCc1ccco1)c1nc2ccccc2nc1N1CCOCC1 (stereo unspecified),inactive: -1.99%
7,COC(=O)c1sccc1NC(=O)c1ccccc1F,inactive: 2.7%
8,COC(=O)c1ccccc1NC(=O)COc1ccccc1[N+](=O)[O-],inactive: -3.65%
9,N#C/C(=C1/C(=O)Nc2ccc(Br)cc21)c1ccccn1,inactive: 1.23%
10,O=c1cc(COc2ccccc2[N+](=O)[O-])nc2sccn12,inactive: -3.42%
11,CC(/C=N/n1c(-c2ccncc2)n[nH]c1=S)=C\c1ccco1,inactive: 0.506%
12,c1ccc(-c2cnc(-c3ccccc3)nn2)cc1,inactive: -0.44%
13,COc1cc(/C=N/Nc2nc3ccccc3s2)ccc1OC(=O)c1ccccc1F,inactive: 2.19%
14,COc1ccc(Nc2nnc(SCC(=O)c3cc4ccccc4o3)s2)cc1,inactive: 10.7%
15,Cc1cc(SCC(=O)c2cccs2)nc2ccccc12,inactive: -9.71%
16,C/C(=N\NC(=S)Nc1cccc(C)c1)c1ccco1,inactive: -0.155%
17,O=C(CCS(=O)(=O)c1ccccc1)Nc1nc(-c2ccccn2)cs1,inactive: 2.62%
18,O=C(NCc1ccco1)c1n[nH]c(=O)c2ccccc12,inactive: -3.92%
19,COc1ccccc1Cc1c(-c2ccco2)nc2c3ccccc3ccn12,inactive: -27.5%

# Quoted from the entries so far (2 entries):
row,SMILES,"activity change, negative = cytotoxicity"
8,COC(=O)c1sccc1NC(=O)c1ccc(OC)c(OC)c1,inactive: 4.1%
9,Oc1ccc(CNc2ccccc2O)cc1,inactive: 3.82%
